This assay in a line: qHTS Assay for Lipid Storage Modulators in Drosophila S3 Cells.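 As to cell number change: cells counted by Cell Tracker Red CMTPX staining in the red channel.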 The conditions noted are these: BODIPY lipid droplet fluorescence, 18-24 h; for cell number change: measured here: cell count max response, cells fed with added oleic acid. An outline of the steps: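 Laser-scanning cytometry quantifies lipid droplet accumulation (500–530 nm total intensity; droplet/cell object ratio) in oleic acid-fed (400 uM added) Drosophila S3 cells treated with a concentration series. 20 uM Triacsin C defined 100% inhibition.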
(qHTS replaces the single test concentration by a dilution series.)

The mark [1] stands for this setting: measured here: lipid fluorescence (Fed channel) AC50, cells fed with added oleic acid.
[2] abbreviates: measured here: cell number channel AC50, cells fed with added oleic acid.

This is one part of the list. Further columns of the screen follow, without active or inactive calls. Compounds called inactive in the main read-out are mostly missing here. Words in brackets tell the shape of the fitted curve; partial curves, single points and poor fits give uncertain potencies.

What is called AC50 is the concentration giving half of the maximal activity seen. A high value points to weaker potency.

Regarding `CCOC(=O)c1c(-c2ccc(C)o2)csc1NC(=S)NC(=O)c1cccs1`, the cell number change turned out to be 15.1%. In addition, the half-maximal activity concentration (AC50) under setting [1] was 0.731 µM [rising, partial curve].
As to `CCOc1ccc2c(c1)-c1c(ssc1=S)C(C)(C)N2C`, the cell number change was -88.8%. Moreover, the AC50 under setting [1] is 0.103 µM [rising, full curve, poor fit].
With `O=C(N/N=C/c1cccs1)c1cc(-c2ccncc2)nc2ccccc12`, the cell number change stood at 6.09%. Also, the AC50 under setting [1] is 32.6 µM [rising, single point].
`CCC(=O)Nc1ccc2c(c1)nc(CCN1CCN(c3ccccn3)CC1)n2C`: the cell number change came out at 31.2%. Besides, the AC50 under setting [2] was 0.517 µM [rising, full curve, poor fit].
`CCN(C(=O)COC(=O)/C=C/c1ccccc1)C1CCCCC1`: the cell number change stood at 22.3%. Moreover, the AC50 under setting [2] is 0.116 µM [rising, full curve, poor fit].
As for `Cc1cc(C)c2cc(C#N)c(N3CCCN(C(=O)c4cnccn4)CC3)nc2c1`, the cell number change is -24.4%. Also, under setting [1], the half-maximal activity concentration (AC50) was 5.17 µM [falling, single point].
Turning to `N#CC1=C(N)Oc2cc(N)ccc2C1c1ccc(F)cc1F` (stereo unspecified), the cell number change is -4.21%.
Regarding `Cc1ccc(NC(=O)CCCn2c(=O)oc3ccccc32)c(O)c1`, the cell number change came to 54.9%. Further, the half-maximal activity concentration (AC50) under setting [2] is 23.1 µM [rising, single point]. For the same compound, under setting [1], the half-maximal activity concentration (AC50) was 0.517 µM [rising, full curve].
In the case of `CCOC(=O)c1ccc(NC(=O)c2n[nH]c(=O)c3ccccc23)cc1`, the cell number change was 4.46%. Under setting [1], the concentration at half-maximal activity (AC50) is 0.146 µM [falling, full curve, poor fit].
On to `Fc1cccc(C2CC(c3cccc(Br)c3)Nc3nnnn32)c1` (stereo unspecified), for which the cell number change was -13%. The AC50 under setting [1] was 1.46 µM [rising, full curve, poor fit].
`CCOC(=O)[C@H]1[C@H]2COc3ccc(OC)cc3[C@@H]2N2C(=O)c3ccc(Cl)cc3NC(=O)[C@@]12C`: the AC50 under setting [1] is 1.84 µM [falling, partial curve, poor fit].
Consider `Cc1ccc(-n2nnnc2SCC(=O)Nc2ccc3c(c2)COC3=O)cc1C`, for which the AC50 reads like this: under setting [2], 7.31 µM [falling, single point]; under setting [1], 1.84 µM [falling, partial curve].
Take `COc1ccc(C(=O)NC(=O)Nc2ncccc2C)cc1`: the cell number change stood at 79.9%. The AC50 under setting [2] was 29.1 µM [rising, single point]. Under setting [1], the AC50 was 3.66 µM [rising, full curve].
On to `CC(C)Cn1c(N)c(C(=O)COC(=O)/C=C/c2cccs2)c(=O)n(C)c1=O`, for which the cell number change is -30.8%. Moreover, the AC50 under setting [2] was 32.6 µM [falling, single point].
Take `Cc1nc2cc(Cl)c(Cl)cc2nc1C`: the cell number change worked out at 19.7%. Moreover, the AC50 under setting [1] is 2.31 µM [rising, full curve].
`FC(F)(F)c1cccc(CON=C2CCN(c3ncc(C(F)(F)F)cc3Cl)CC2)c1`: the half-maximal activity concentration (AC50) under setting [1] was 29.1 µM [rising, single point].
For `COc1cc(S(=O)(=O)Nc2ccc(C)cc2)ccc1N=Cc1c(C)c(C#N)c(=O)n(C)c1O`, the cell number change is -41.8%. Besides, the half-maximal activity concentration (AC50) under setting [2] was 18.4 µM [falling, single point].
For the compound `CNC(=O)Nc1cc(C)nn1C`, the cell number change was determined as 24.8%. Also, under setting [2], the half-maximal activity concentration (AC50) was 0.461 µM [falling, single point]. Moreover, the half-maximal activity concentration (AC50) under setting [1] was 1.64 µM [falling, partial curve].
With `COc1ccc(-c2cc(C(=O)NNC3=NCCC3)c3c(C)nn(-c4ccccc4)c3n2)cc1`, the AC50 is, setting by setting: under setting [2], 0.13 µM [rising, full curve, poor fit]; under setting [1], 0.164 µM [rising, full curve, poor fit].
For `CCCOc1ccc(N2C(=O)CC(SC(=NCC)Nc3cccc(F)c3)C2=O)cc1` (stereo unspecified), the cell number change is -30.8%. For the same compound, the concentration at half-maximal activity (AC50) under setting [2] is 16.4 µM [falling, single point]. Under setting [1], the half-maximal activity concentration (AC50) was 9.2 µM [falling, partial curve].
With `CS(=O)(=O)c1nc(-c2ccc(F)cc2)cc(C(F)(F)F)n1`, the cell number change was -20.4%. The AC50 under setting [1] was 1.3 µM [falling, full curve].
As to `N#CC(c1ccc(O)cc1)c1ncc(C(F)(F)F)cc1Cl` (stereo unspecified), the cell number change was -35.2%.
In the case of `CC(Sc1nc(N2CCOCC2)c2c(c1C#N)CC(C)(C)OC2)C(=O)Nc1ccccc1` (stereo unspecified), the cell number change is -61.6%. The AC50 under setting [2] was 8.2 µM [falling, partial curve]. Moreover, the AC50 under setting [1] is 7.31 µM [falling, partial curve].
On to `CCOc1ccc(N=c2cc(-c3ccc(OC)cc3)oc3ccccc23)cc1`, for which the cell number change is -63.9%. Also, the AC50 under setting [2] is 20.6 µM [falling, single point].
`O=c1c2ccccc2nnn1COc1ccc(Cl)cc1Br`: the cell number change was found to be 50.4%. The concentration at half-maximal activity (AC50) under setting [2] was 32.6 µM [rising, single point]. Further, the AC50 under setting [1] is 29.1 µM [rising, single point].
In the case of `O=C(CC1CCCC1)NNC(=O)c1ccc(Br)cc1`, the cell number change is -1.5%. Further, the AC50 under setting [1] is 0.103 µM [rising, full curve, poor fit].
Turning to `COC(=O)c1ccc(OC(=O)c2nn(C)cc2Cl)c(OC)c1`, the cell number change was -3.46%.
Still for that read-out and setting: the value for `COc1cc(Br)c(C2CC(=O)Nc3cc(OC)c(OC)cc32)cc1OC` (stereo unspecified) was -25.4%.
In the case of `CCOCCc1nn2c(=O)cc(CSCC(=O)Nc3cc(C)cc(C)c3)nc2s1`, the cell number change was found to be 12.5%. Further, the half-maximal activity concentration (AC50) under setting [1] is 29.1 µM [rising, single point].
As for `Cc1cc(N2C(=O)NC(=O)CC2C)c(C)cc1C(C)C` (stereo unspecified), the cell number change is -36.9%. In addition, the concentration at half-maximal activity (AC50) under setting [2] was 0.103 µM [falling, partial curve, poor fit]. Also, the half-maximal activity concentration (AC50) under setting [1] was 29.1 µM [falling, single point].
Turning to `CC(=O)Nc1ccc(S(=O)(=O)NCc2csc(-c3cccnc3)n2)cc1`, the cell number change was 141%. For the same compound, the half-maximal activity concentration (AC50) under setting [2] is 8.2 µM [rising, partial curve]. The AC50 under setting [1] is 7.31 µM [rising, partial curve].
Take `COc1ccccc1-c1ccc(=O)n(CC(=O)NC2CCc3ccccc32)n1` (stereo unspecified): the cell number change is -65.2%. Further, under setting [2], the AC50 was 8.2 µM [falling, partial curve]. In addition, the AC50 under setting [1] is 10.3 µM [falling, partial curve].
Consider `O=C(Nc1nnc(-c2ccc(Cl)cc2)o1)Nc1ccccc1Cl`, for which the cell number change stood at 2.78%.
Turning to `CNC(=O)c1sc(-c2ccc(Cl)cc2)nc1C`, the cell number change was found to be 1.08%. The concentration at half-maximal activity (AC50) under setting [1] was 16.4 µM [rising, single point].
Take `COc1ccc(Nc2ncnc3scc(-c4ccc(OC)cc4)c23)cc1`: the cell number change was -8.95%. For the same compound, under setting [1], the concentration at half-maximal activity (AC50) was 29.1 µM [falling, single point].
In the case of `O=C(CN(Cc1ccc(F)cc1)C(=O)CCC(=O)Nc1ccccn1)NCc1ccco1`, the cell number change is -18.1%.
For the compound `Cc1cc(C)c2[nH]c(=O)c(CN(Cc3ccco3)C(=O)C3CCCO3)cc2c1` (stereo unspecified), the cell number change is -33.6%. For the same compound, under setting [2], the concentration at half-maximal activity (AC50) was 20.6 µM [falling, partial curve, poor fit]. Further, the AC50 under setting [1] was 1.64 µM [rising, full curve, poor fit].

The record behind these values is PubChem BioAssay AID2685 (National Center for Advancing Translational Sciences (NCATS), 2010).
